To fix the notation:
B1: tRNA (parent)
chain: GUUCCGUUGGCGUAAUGGUAACGCGUCUCCCUCCUAAGGAGAAGACUGCGGGUUCGAGUCCCGUACGGAACG

This sample is rich in variants without activity. Where only a bound is given, the exact number is not on record here.

The variants in this data set derive from B1. Description: yeast fitness relative to wild type (ratio to wild type); higher = fitter; tRNA-Arg(CCU), competitive growth, 37 C, YPD. Summed up:
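A pool of Saccharomyces cerevisiae strains, each with a tRNA-Arg(CCU) gene variant at the native genomic locus, was competed in YPD at 37°C for 24 hours across six parallel replicates. The variants had been chemically synthesised at a 3% per-site mutation rate over 69 sites, and gene amplicons before and after competition were read by 100-nucleotide paired-end sequencing. Darwinian fitness relative to wild type rested on changes in genotype frequencies. Genotypes required ≥ 100 starting reads, and estimates < 0.5 were set to 0.5.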
In the case of A21C A42U G52A C60A A69G, the yeast fitness is not above 0.5. With U3C A15G A40U C55G C61G, the yeast fitness is not above 0.5.

On to A14U C55A C60A, for which the yeast fitness is not above 0.5.

For the variant A15U A20C U32G U54C A65C, the yeast fitness is not above 0.5. Consider C11G C30G C31G U32A G58C G63A, for which the yeast fitness is not above 0.5. For the variant A14G A45C G67C, the yeast fitness was not above 0.5.

Take G12A A15C C24A: the yeast fitness is not above 0.5.

Take C30G G44A G63A: the yeast fitness was not above 0.5. Regarding C5U A37C C61G, the yeast fitness is not above 0.5. In the case of C24G U35C A45C C60A G68U, the yeast fitness was not above 0.5. As to G6U C11A U13A G52A G63U, the yeast fitness was not above 0.5. A37G G58A: the yeast fitness worked out at 0.976. Consider C4G G10A U13A U26G C27G C29U C33U U53C C61U, for which the yeast fitness was not above 0.5. Under C31G C55G A57C stands not above 0.5; under C34G U59C, 0.602; under C4A G10A C46U, not above 0.5. Under C29G A40U C60G stands not above 0.5; under U13C A20G C31U, 0.777. U8C A15C C33U U47G C49U G52C A70G: the yeast fitness is not above 0.5. Take A15C G18A C24G C55A: the yeast fitness was not above 0.5. A15U C24A G25A G38A C66U: the yeast fitness is not above 0.5. Under G9C C11U C24G C31U C34U C49U A69C stands not above 0.5. Under A20G C22G C27G C30U C31G G51C C61A A69C stands not above 0.5.

As to U8C G17A C60U, the yeast fitness was not above 0.5. As to U26C C30U U59A A69U, the yeast fitness is not above 0.5. Consider C5G C24G C61G, for which the yeast fitness is not above 0.5.

For the variant C24G A37G G52C A69U, the yeast fitness is not above 0.5. In the case of C30G C31G A65C, the yeast fitness is not above 0.5. Regarding G6C A20U C29A G58A C61G A70U, the yeast fitness is not above 0.5. Under A36C G51A G67A stands not above 0.5; under A14G G17C A36C G48A C49G G51A A70C, not above 0.5; under C11U C49U G56A A65C, not above 0.5. Regarding A14C G48C C49G, the yeast fitness was not above 0.5. As to U7C G23C, the yeast fitness came out at 0.671. Under U7A G25A C30U A57C stands not above 0.5; under G9A A21C G25C U32A, not above 0.5. As to G18C G25C U28G A42G C49U A57U G63A, the yeast fitness was not above 0.5.

With C11A C31A C46U A57C C66A, the yeast fitness was not above 0.5. As for G10A U26G A65U, the yeast fitness was not above 0.5. For the variant C27G A40G G52A, the yeast fitness is not above 0.5. For C27G A57G C60G A69U, the yeast fitness was not above 0.5.

Regarding U7C U8C C27U G39C, the yeast fitness was not above 0.5.

Turning to C5A C11G G38A G50C, the yeast fitness is not above 0.5.

Take C4U C34G U54G C66U: the yeast fitness was not above 0.5.

As for G10U G17A C24A C66G, the yeast fitness was 0.595.

For U16A A21U C27U A40U, the yeast fitness was not above 0.5. The result for C34U C46U A69G A70U reads not above 0.5; that for G17A U64G C66U, not above 0.5.

A40C C61U: the yeast fitness came to 0.799. With C27U C46G A57U C66U A70U, the yeast fitness is not above 0.5. The result for C11U G50A A70U reads 0.702; that for U3C C4U, 1.01; that for A14G G38A A40C C49U G50A U54A, not above 0.5.

For C34G A36U, the yeast fitness was not above 0.5. Under C30U C60U stands 0.734. Turning to U16A C22G G48A C61U A65G, the yeast fitness was not above 0.5.

For U35C A42C G68U, the yeast fitness was not above 0.5.

As for A15U A20G U35C G48U C55G, the yeast fitness was not above 0.5.

G9C A40U A70U: the yeast fitness is not above 0.5. Consider A42G G51U A57U, for which the yeast fitness was not above 0.5.

As to C22A C24U C30U C31G C49G, the yeast fitness was not above 0.5. Turning to C5A C22U C34G A36U G56C, the yeast fitness was not above 0.5.

In the case of C4G C24G A65C, the yeast fitness was not above 0.5. In the case of G18A A37G C61U, the yeast fitness is not above 0.5. Under C22U U35C G51A C55A C66U stands not above 0.5; under U26A A43U C55U C66U, not above 0.5; under A21C G25C A57G A69U, not above 0.5.

On to U2C C29G A70C, for which the yeast fitness was not above 0.5. On to C34U C49U U53A, for which the yeast fitness is not above 0.5. For U3C U35C A42G C49A, the yeast fitness was not above 0.5. On to C11U A37G U47A C60A, for which the yeast fitness was not above 0.5. The result for A15U C22U A70U reads not above 0.5; that for A20G G38A C46U G52C A57C U59A, not above 0.5; that for C11A A40C A42U C49G C66G, not above 0.5. Take A14C A21G: the yeast fitness amounted to 0.713. In the case of G6C A15U U26A, the yeast fitness was not above 0.5.

For U8C A14C U19G C31G C33U A42G U64C A65G, the yeast fitness is not above 0.5. As to G17C C22U A42U C60A, the yeast fitness was not above 0.5. The result for U2A G23C C27U C31G A42C reads not above 0.5; that for U28G A43G A45G C49U A57U, not above 0.5. For C31G G58C, the yeast fitness amounted to 0.88. For A14G U28A A45C U53A, the yeast fitness was not above 0.5. Consider U19A C29A U47A G51A U54G C60U C62U, for which the yeast fitness was not above 0.5. On to U19A U35A G39A, for which the yeast fitness was not above 0.5. As for U3C A37G A70U, the yeast fitness turned out to be 0.568. Consider U7A U8A G56C, for which the yeast fitness is not above 0.5. On to C4A C31U C46A, for which the yeast fitness was 0.726. In the case of U3A C5U G18C U54A A70G, the yeast fitness is not above 0.5. As for C29G C55A A69U, the yeast fitness is not above 0.5. Turning to C11A G23A G39A, the yeast fitness was not above 0.5. For A14U C49A A65G, the yeast fitness is not above 0.5. Turning to U2G U28G A42G G68U, the yeast fitness was not above 0.5.

Consider C11U A15U C22U G67A, for which the yeast fitness was not above 0.5. Take C22G C24U G39A: the yeast fitness is not above 0.5. For the variant C11A C27U G44C, the yeast fitness was 0.572. For A20G C24U C33U A43C C55A U59C, the yeast fitness is 0.539. For U16A A36G C55G, the yeast fitness was not above 0.5. For the variant G23U U28G A69U, the yeast fitness was not above 0.5. Regarding A14C A20U A21U U26A C61U, the yeast fitness is not above 0.5.

Take C24G C27G A37C G52A G67A: the yeast fitness was not above 0.5. C4A A21G C27U: the yeast fitness was found to be 0.686. Regarding C4U U19G G50A G51C C55G C61U, the yeast fitness was not above 0.5.

For G17C C24G C34U, the yeast fitness amounted to 0.527.

Turning to C11A A20U C24U U26G C27U A36C A45U C55G, the yeast fitness is not above 0.5. Under A20U C24U stands 0.841; under A37G A42U C49G A57U, not above 0.5; under U3C C11G C31U C33A C66U, not above 0.5. In the case of G12C C31A A40C C62U, the yeast fitness is not above 0.5. As to U8A G18C C24A U32C A69U, the yeast fitness came out at 0.565. Turning to G12A A21U G56C C61A A70C, the yeast fitness is not above 0.5. With C11U C31U U53C C66A G67A A70G, the yeast fitness is not above 0.5.

With C5A U13A U35A U59C, the yeast fitness is 0.661. Regarding G9A G56A C62A G67A, the yeast fitness is not above 0.5. Regarding A14G C46G C55A A70G, the yeast fitness was not above 0.5.

Regarding C30G C46G G52C, the yeast fitness is not above 0.5.

In the case of A21U C30G U32C U64C, the yeast fitness was not above 0.5. As for U8A A42U U47C C55G, the yeast fitness is not above 0.5.

For the variant C5G U13G C29U A40G C60U A65G, the yeast fitness is not above 0.5. Take G18A A20G C46U U54C G58C G67A: the yeast fitness is not above 0.5. Turning to C5U A45U, the yeast fitness is 1.01. For G9C A45G G51A, the yeast fitness was not above 0.5. Consider U32G G39C A43G G52C, for which the yeast fitness was 0.571. For G6C G9C C27G A37U U54C C62A G68C, the yeast fitness is not above 0.5. Under C34G A37G G51C stands not above 0.5; under A21C C61U A70U, 0.623; under C5U C33U A42G G67C, not above 0.5.

As to C24A C31U A42C C66A, the yeast fitness was not above 0.5. Consider A20C U26G C55A, for which the yeast fitness is not above 0.5. G25A A57C: the yeast fitness stood at 0.697. Turning to U7C C31A A36U, the yeast fitness was not above 0.5. As to G38C C46A U59C G68A, the yeast fitness is not above 0.5. Turning to C22U A42G A45U G52A, the yeast fitness is not above 0.5.

For the variant U8A U19C A21C G39C A42G A69U, the yeast fitness was not above 0.5.

For the variant G6A A20G C31G C46U C66A, the yeast fitness was not above 0.5. The result for U3C G6A G18C C30U C31U G48A C55G reads not above 0.5. Turning to C27A G39C, the yeast fitness stood at 0.616. For U3C C34U G41C U53A, the yeast fitness is not above 0.5.

For C27G A36C G48C, the yeast fitness is not above 0.5.

For the variant A21U G25A U54A C62G C66U A70C, the yeast fitness was not above 0.5.

Turning to A36G A37G A65U, the yeast fitness is not above 0.5. Take A20U U32C A43G: the yeast fitness worked out at 0.659. The result for U2G G12A U13A G25C U28A C33A G63C U64C C66U reads not above 0.5; that for C11U C62G G63A, 0.529. Take G6C C33G A36C C49A C60G A70U: the yeast fitness was not above 0.5. Take A36U G39A C60G: the yeast fitness is not above 0.5. For U16C A21U U26C A43U C61G, the yeast fitness is not above 0.5. Under G6A A20G C24U A40G A43G C66U A70G stands not above 0.5; under C31U C55A, 0.749. For A15U U47C G63A, the yeast fitness is not above 0.5. Turning to U3C A21G U28A U47G, the yeast fitness was not above 0.5. With A20U C34A G58C C62A, the yeast fitness is not above 0.5. As to A20C C30G C31A G50A U54C U59A, the yeast fitness is not above 0.5. A20C G44C A70U: the yeast fitness worked out at 0.573. Consider C29U C31G C34G A37C, for which the yeast fitness is not above 0.5. For U8A A20G C49G A57C, the yeast fitness was not above 0.5. In the case of U2C A20G C22G C24A A69G, the yeast fitness was not above 0.5. On to G6A A20U C62A G67A A69G, for which the yeast fitness is not above 0.5. G9C C34G U47C C49U: the yeast fitness is not above 0.5. Turning to A21U C33A C34U A36C G48C, the yeast fitness is not above 0.5.

Regarding U2C A15C C24A G41C G68A, the yeast fitness is not above 0.5.

For C33G C46A C61A, the yeast fitness is not above 0.5. On to G12A U26C A36C G56C, for which the yeast fitness was not above 0.5. For C24G A36C A42U A57U, the yeast fitness is not above 0.5. Under U2C G12A G18A U28C A42C G56C A65C C66A stands not above 0.5; under G9A A21C C24G C34U, not above 0.5. Turning to A15C G18A C24A C34U C46G, the yeast fitness is not above 0.5. Consider A40U U59A A70C, for which the yeast fitness was not above 0.5.

(Values after the RNAGym collection of RNA variant scans (doi:10.1126/science.aae0568).)
